# Values quoted from earlier work as cited in patent publication US20120021384A1, “CHARACTERIZATION OF AN ANTIBIOTIC IMREGNATED DELIVERY SYSTEMS AS AN INTRACANAL MEDICAMENT IN ENDODONTIC THERAPY” (priority 2008, published 2012).
# For at least one compound, name, drawing or mass did not settle the structure.
# Test system: most susceptible aerobic and microaerophilic bacteria
structure (smiles),measurement,value
CCC[C@@H]1C[C@@H](C(=O)N[C@@H]([C@H]2O[C@H](SC)[C@H](O)[C@@H](O)[C@H]2O)[C@H](C)Cl)N(C)C1 [clindamycin],minimum inhibitory concentration (MIC),100 to 400 µg/mL
